# Reference: the supplement of paper PMC8728848
# Some of the results follow.
# B1: RsaA-N-term (Caulobacter crescentus), P35828 (protein)
# chain: MAYTTAQLVTAYTNANLGKAPDAATTLTLDAYATQTQTGGLSDAAALTNTLKLVNSTTAVAIQTYQFFTGVAPSAAGLDFLVDSTTNTNDLNDAYYSKFAQENRFINFSINLATGAGAGATAFAAAYTGVSYAQTVATAYDKIIGNAVATAAGVDVAAAVAFLSRQANIDYLTAFVRANTPFTAAADIDLAVKAALIGTILNAATVSGIGGYATATAAMINDLSDGALSTDNAAGVNLFTAYPSSGVSGSTLSLTTGTDTLTGTANNDTFVAGEVAGDGSGWSHPQFEKGG
# Key:
# Assay in all cases: glycan array binding signal (z-score within array); higher = stronger binding
# Details in all cases: glycan notation: IUPAC condensed, linker removed
# [1] = target: Neu5Ac(a2-3)Gal(b1-3)[Neu5Ac(a2-6)]GlcNAc(b1-3)[Fuc(a1-3)[Gal(b1-4)]GlcNAc(b1-6)]Gal(b1-4)Glc
# How it was run: (§1)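 The binding signal is a Z-score computed within each array. Data were drawn from 3228 arrays in the Consortium for Functional Glycomics database, restricted to those with a known protein sequence. Scores were averaged over arrays of the same protein sequence at different concentrations or buffers, and over linkers, and negative values can be taken as non-binding.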
# [2] = target: Neu5Ac(a2-3)Gal(b1-3)]Neu5Ac(a2-3)Gal(b1-4)]GlcNAc
# How it was run: as §1
# [3] = target: Neu5Ac(a2-3)Gal(b1-4)Glc
# How it was run: as §1
# [4] = target: Neu5Ac(a2-3)Gal(b1-4)GlcNAc
# How it was run: as §1
# [5] = target: Neu5Ac(a2-3)Gal(b1-4)GlcNAc(b1-2)Man
# How it was run: as §1
# [6] = target: Neu5Ac(a2-3)Gal(b1-4)GlcNAc(b1-2)Man(a1-3)[GlcNAc(b1-4)][Neu5Ac(a2-3)Gal(b1-4)GlcNAc(b1-2)Man(a1-6)]Man(b1-4)GlcNAc(b1-4)GlcNAc
# How it was run: as §1
# [7] = target: Neu5Ac(a2-3)Gal(b1-4)GlcNAc(b1-2)Man(a1-3)[Neu5Ac(a2-3)Gal(b1-4)GlcNAc(b1-2)Man(a1-6)]Man(b1-4)GlcNAc(b1-4)GlcNAc
# How it was run: as §1
# [8] = target: Neu5Ac(a2-3)Gal(b1-4)GlcNAc(b1-2)Man(a1-3)[Neu5Ac(a2-3)Gal(b1-4)GlcNAc(b1-2)Man(a1-6)]Man(b1-4)GlcNAc(b1-4)[Fuc(a1-6)]GlcNAc
# How it was run: as §1
# [9] = target: Neu5Ac(a2-3)Gal(b1-4)GlcNAc(b1-2)Man(a1-3)[Neu5Ac(a2-6)Gal(b1-4)GlcNAc(b1-2)Man(a1-6)]Man(b1-4)GlcNAc(b1-4)GlcNAc
# How it was run: as §1
# [10] = target: Neu5Ac(a2-3)Gal(b1-4)GlcNAc(b1-2)[Neu5Ac(a2-3)Gal(b1-4)GlcNAc(b1-4)]Man(a1-3)[GlcNAc(b1-4)][Neu5Ac(a2-3)Gal(b1-4)GlcNAc(b1-2)[Neu5Ac(a2-3)Gal(b1-4)GlcNAc(b1-6)]Man(a1-6)]Man(b1-4)GlcNAc(b1-4)GlcNAc
# How it was run: as §1
# [11] = target: Neu5Ac(a2-3)Gal(b1-4)GlcNAc(b1-2)[Neu5Ac(a2-3)Gal(b1-4)GlcNAc(b1-4)]Man(a1-3)[GlcNAc(b1-4)][Neu5Ac(a2-3)Gal(b1-4)GlcNAc(b1-4)Man(a1-6)]Man(b1-4)GlcNAc(b1-4)GlcNAc
# How it was run: as §1
# [12] = target: Neu5Ac(a2-3)Gal(b1-4)GlcNAc(b1-2)[Neu5Ac(a2-3)Gal(b1-4)GlcNAc(b1-6)]Man(a1-6)[Neu5Ac(a2-3)Gal(b1-4)GlcNAc(b1-2)Man(a1-3)][GlcNAc(b1-4)]Man(b1-4)GlcNAc(b1-4)GlcNAc
# How it was run: as §1
# [13] = target: Neu5Ac(a2-3)Gal(b1-4)GlcNAc(b1-3)Gal
# How it was run: as §1
# [14] = target: Neu5Ac(a2-3)Gal(b1-4)GlcNAc(b1-3)Gal(b1-3)GlcNAc
# How it was run: as §1
# [15] = target: Neu5Ac(a2-3)Gal(b1-4)GlcNAc(b1-3)Gal(b1-4)GlcNAc
# How it was run: as §1
# [16] = target: Neu5Ac(a2-3)Gal(b1-4)GlcNAc(b1-3)Gal(b1-4)GlcNAc(b1-2)Man(a1-3)[Neu5Ac(a2-3)Gal(b1-4)GlcNAc(b1-3)Gal(b1-4)GlcNAc(b1-2)Man(a1-6)]Man(b1-4)GlcNAc(b1-4)GlcNAc
# How it was run: as §1
# [17] = target: Neu5Ac(a2-3)Gal(b1-4)GlcNAc(b1-3)Gal(b1-4)GlcNAc(b1-3)Gal(b1-4)GlcNAc
# How it was run: as §1
# [18] = target: Neu5Ac(a2-3)Gal(b1-4)GlcNAc(b1-3)Gal(b1-4)GlcNAc(b1-3)Gal(b1-4)GlcNAc(b1-2)Man(a1-3)[Neu5Ac(a2-3)Gal(b1-4)GlcNAc(b1-3)Gal(b1-4)GlcNAc(b1-3)Gal(b1-4)GlcNAc(b1-2)Man(a1-6)]GalNAc
# How it was run: as §1
# [19] = target: Neu5Ac(a2-3)Gal(b1-4)GlcNAc(b1-3)Gal(b1-4)GlcNAc(b1-3)GalNAc
# How it was run: as §1
# [20] = target: Neu5Ac(a2-3)Gal(b1-4)GlcNAc(b1-3)Gal(b1-4)GlcNAc(b1-3)[Neu5Ac(a2-3)Gal(b1-4)GlcNAc(b1-3)Gal(b1-4)GlcNAc(b1-6)]GalNAc
# How it was run: as §1
# [21] = target: Neu5Ac(a2-3)Gal(b1-4)GlcNAc(b1-3)Gal(b1-4)GlcNAc(b1-6)[Gal(b1-3)]GalNAc
# How it was run: as §1
# [22] = target: Neu5Ac(a2-3)Gal(b1-4)GlcNAc(b1-3)Gal(b1-4)[Fuc(a1-3)]GlcNAc
# How it was run: as §1
# [23] = target: Neu5Ac(a2-3)Gal(b1-4)GlcNAc(b1-3)GalNAc
# How it was run: as §1
# [24] = target: Neu5Ac(a2-3)Gal(b1-4)GlcNAc(b1-3)[Neu5Ac(a2-3)Gal(b1-4)GlcNAc(b1-6)]GalNAc
# How it was run: as §1
# [25] = target: Neu5Ac(a2-3)Gal(b1-4)GlcNAc(b1-6)GalNAc
# How it was run: as §1
# [26] = target: Neu5Ac(a2-3)Gal(b1-4)GlcNAc(b1-6)[Gal(b1-3)]GalNAc
# How it was run: as §1
# [27] = target: Neu5Ac(a2-3)Gal(b1-4)GlcNAc(b1-6)[Neu5Ac(a2-3)Gal(b1-3)]GalNAc
# How it was run: as §1
# [28] = target: Neu5Ac(a2-3)Gal(b1-4)GlcNAc6S
# How it was run: as §1
# [29] = target: Neu5Ac(a2-3)Gal(b1-4)[Fuc(a1-3)]GlcNAc
# How it was run: as §1
# [30] = target: Neu5Ac(a2-3)Gal(b1-4)[Fuc(a1-3)]GlcNAc(b1-2)Man
# How it was run: as §1
# [31] = target: Neu5Ac(a2-3)Gal(b1-4)[Fuc(a1-3)]GlcNAc(b1-3)Gal
# How it was run: as §1
# [32] = target: Neu5Ac(a2-3)Gal(b1-4)[Fuc(a1-3)]GlcNAc(b1-3)Gal(b1-4)GlcNAc
# How it was run: as §1
# [33] = target: Neu5Ac(a2-3)Gal(b1-4)[Fuc(a1-3)]GlcNAc(b1-3)Gal(b1-4)[Fuc(a1-3)]GlcNAc(b1-3)Gal(b1-4)[Fuc(a1-3)]GlcNAc
# How it was run: as §1
# [34] = target: Neu5Ac(a2-3)Gal(b1-4)[Fuc(a1-3)]GlcNAc(b1-3)GalNAc
# How it was run: as §1
# [35] = target: Neu5Ac(a2-3)Gal(b1-4)[Fuc(a1-3)]GlcNAc(b1-6)[Gal(b1-3)]GalNAc
# How it was run: as §1
# [36] = target: Neu5Ac(a2-3)Gal(b1-4)[Fuc(a1-3)]GlcNAc(b1-6)[Neu5Ac(a2-3)Gal(b1-3)]GalNAc
# How it was run: as §1
# [37] = target: Neu5Ac(a2-3)Gal(b1-4)[Fuc(a1-3)]GlcNAc6S
# How it was run: as §1
# [38] = target: Neu5Ac(a2-3)Gal6S(b1-4)GlcNAc
# How it was run: as §1
binder,measurement,setting,value
B1,glycan array binding signal (z-score),[1],0.036
same,glycan array binding signal (z-score),[2],-0.603
same,glycan array binding signal (z-score),[3],0.251
same,glycan array binding signal (z-score),[4],-0.145
same,glycan array binding signal (z-score),[5],2.51
same,glycan array binding signal (z-score),[6],0.501
same,glycan array binding signal (z-score),[7],-1.12
same,glycan array binding signal (z-score),[8],0.934
same,glycan array binding signal (z-score),[9],1.35
same,glycan array binding signal (z-score),[10],0.408
same,glycan array binding signal (z-score),[11],1.65
same,glycan array binding signal (z-score),[12],-0.474
same,glycan array binding signal (z-score),[13],-0.608
same,glycan array binding signal (z-score),[14],-0.388
same,glycan array binding signal (z-score),[15],-0.428
same,glycan array binding signal (z-score),[16],0.639
same,glycan array binding signal (z-score),[17],0.059
same,glycan array binding signal (z-score),[18],-0.725
same,glycan array binding signal (z-score),[19],-1.2
same,glycan array binding signal (z-score),[20],-0.649
same,glycan array binding signal (z-score),[21],-0.672
same,glycan array binding signal (z-score),[22],-0.112
same,glycan array binding signal (z-score),[23],1.31
same,glycan array binding signal (z-score),[24],-0.25
same,glycan array binding signal (z-score),[25],-0.037
same,glycan array binding signal (z-score),[26],-0.144
same,glycan array binding signal (z-score),[27],1.32
same,glycan array binding signal (z-score),[28],0.853
same,glycan array binding signal (z-score),[29],-0.885
same,glycan array binding signal (z-score),[30],0.103
same,glycan array binding signal (z-score),[31],-0.573
same,glycan array binding signal (z-score),[32],-0.577
same,glycan array binding signal (z-score),[33],0.776
same,glycan array binding signal (z-score),[34],0.296
same,glycan array binding signal (z-score),[35],0.034
same,glycan array binding signal (z-score),[36],-0.11
same,glycan array binding signal (z-score),[37],-0.677
same,glycan array binding signal (z-score),[38],-1.01

# Nothing new here: entries from further up.
binder,measurement,setting,value
B1,glycan array binding signal (z-score),[6],0.501
same,glycan array binding signal (z-score),[7],-1.12
same,glycan array binding signal (z-score),[8],0.934
same,glycan array binding signal (z-score),[9],1.35
same,glycan array binding signal (z-score),[10],0.408
same,glycan array binding signal (z-score),[11],1.65
same,glycan array binding signal (z-score),[12],-0.474
same,glycan array binding signal (z-score),[13],-0.608
same,glycan array binding signal (z-score),[14],-0.388
same,glycan array binding signal (z-score),[15],-0.428
